{
  "source": "the supplement of paper PMC11348887",
  "note": "Where a name gives a salt, the structure may show the parent alone. The list shows a part of the results. Most entries show no effect beyond the scatter of the controls. *1 amine or outer side, *2 acyl side, *3 side chain or, on linkers, in order; H or OH if unused. Where a SMILES comes first, the peptide text is derived from it. Bridges are numbered along the chain shown (N, C = ends). [ ]: non-standard residue; d: D form. The star is where a group is joined. pTerphenylCO(4''-OnC5H11) = CCCCCOc1ccc(-c2ccc(-c3ccc(C(=O)*)cc3)cc2)cc1; Orn(4R-OH,5R-OH) = O=C([C@H](C[C@@H](O)[C@@H](O)N[*:3])N[*:1])[*:2]; hTyr(3S-OH,4S-OH) = N[C@H](C(=O)O)[C@H](O)[C@@H](O)c1ccc(O)cc1; Pro(3S-OH,4S-Me) = C[C@H]1CN[C@H](C(=O)O)[C@H]1O; Hyp = O=C(O)[C@@H]1C[C@@H](O)CN1",
  "data": [
    {"system": "hPSC-derived cortical neurons (WA09)", "experiment": "total neurite length per nucleus (MAP2) z-score; higher = more neurite growth", "settings": "5 µM; treatment: days 7-14 after plating, readout day 21", "values": [
      {"smiles": "COc1cc2nc(N(C)CCCNC(=O)C3CCCO3)nc(N)c2cc1OC", "note": "(stereo not drawn) [Alfuzosin HCl]", "total neurite length per nucleus (z-score)": -0.844},
      {"smiles": "CC[C@H](C)n1cc(C)c2c(C(=O)NCc3c(C)cc(C)[nH]c3=O)cc(-c3ccc(N4CCNCC4)nc3)cc21", "total neurite length per nucleus (z-score)": 0.31},
      {"smiles": "OC[C@H]1O[C@@H](Oc2ccc(O)cc2)[C@H](O)[C@@H](O)[C@@H]1O", "note": "[Arbutin]", "total neurite length per nucleus (z-score)": 0.146},
      {"smiles": "NC(=O)[C@@H](CCC(F)(F)F)N(Cc1ccc(-c2ncon2)cc1F)S(=O)(=O)c1ccc(Cl)cc1", "total neurite length per nucleus (z-score)": -0.319},
      {"smiles": "O=C(O)CCNC(=O)c1ccccc1", "note": "[Betamipron]", "total neurite length per nucleus (z-score)": -0.151},
      {"smiles": "CN(C)Cc1c(C(=O)NCCOc2ccc(C(=O)NO)cc2)oc2ccccc12", "total neurite length per nucleus (z-score)": -2.43},
      {"smiles": "OCCn1cc(-c2ccc3c(c2)CC/C3=N\\O)c(-c2ccncc2)n1", "total neurite length per nucleus (z-score)": -0.897},
      {"smiles": "OCc1c[nH]c2ccccc12", "note": "[Indole-3-carbinol]", "total neurite length per nucleus (z-score)": -0.927},
      {"smiles": "Cc1cc(=O)oc2cc(O)ccc12", "note": "[4-Methylumbelliferone (4-MU)]", "total neurite length per nucleus (z-score)": -0.882},
      {"smiles": "CC1(C)CCC(C)(C)c2cc(NC(=O)c3ccc(C(=O)O)cc3)ccc21", "note": "[Tamibarotene]", "total neurite length per nucleus (z-score)": -0.392},
      {"smiles": "CCCCCOc1ccc(-c2ccc(-c3ccc(C(=O)N[C@H]4C[C@@H](O)[C@@H](O)NC(=O)[C@@H]5[C@@H](O)[C@@H](C)CN5C(=O)[C@H]([C@@H](C)O)NC(=O)[C@H]([C@H](O)[C@@H](O)c5ccc(O)cc5)NC(=O)[C@@H]5C[C@@H](O)CN5C(=O)[C@H]([C@@H](C)O)NC4=O)cc3)cc2)cc1", "note": "({pTerphenylCO(4''-OnC5H11)}-[Orn(4R-OH,5R-OH)]T[Hyp][hTyr(3S-OH,4S-OH)]T[Pro(3S-OH,4S-Me)]; lactam 1-C)", "total neurite length per nucleus (z-score)": -0.159},
      {"smiles": "O=C(Nc1ccccc1)OCC(CN1CCCCC1)OC(=O)Nc1ccccc1", "note": "(stereo not drawn) [Diperodon HCl]", "total neurite length per nucleus (z-score)": -0.913},
      {"smiles": "CC(C)c1cc(C(C)C)c(CC(=O)NS(=O)(=O)Oc2c(C(C)C)cccc2C(C)C)c(C(C)C)c1", "note": "[Avasimibe]", "total neurite length per nucleus (z-score)": 0.289},
      {"smiles": "OC(CCN1CCCCC1)(c1ccccc1)C1CCCCC1", "note": "(stereo not drawn) [Trihexyphenidyl hydrochloride]", "total neurite length per nucleus (z-score)": 1.05},
      {"smiles": "O=C(Nc1cc(Cl)cc2c1[nH]c1cnccc12)c1cccnc1", "total neurite length per nucleus (z-score)": -0.982},
      {"smiles": "CN1C(=O)[C@@H](NC(=O)c2cc(Cc3ccccc3)on2)COc2ccccc21", "total neurite length per nucleus (z-score)": 0.7},
      {"smiles": "CC(=O)O[C@H]1C[C@@]2(C)[C@@H](C[C@@H](O)[C@H]3[C@@]4(C)CC[C@@H](O)[C@@H](C)[C@@H]4CC[C@@]32C)/C1=C(\\CCC=C(C)C)C(=O)O", "note": "[Fusidate Sodium]", "total neurite length per nucleus (z-score)": 0.0302},
      {"smiles": "C=CC(=O)N1C/C(=C\\c2ccc([N+](=O)[O-])cc2)C(=O)/C(=C/c2ccc([N+](=O)[O-])cc2)C1", "total neurite length per nucleus (z-score)": -2.39},
      {"smiles": "Nc1cc(C(Cl)=C(Cl)Cl)c(S(N)(=O)=O)cc1S(N)(=O)=O", "note": "[Clorsulon]", "total neurite length per nucleus (z-score)": -1.06},
      {"smiles": "Cc1cnc(Nc2ccc(OCCN3CCCC3)cc2)nc1Nc1cccc(S(=O)(=O)NC(C)(C)C)c1", "total neurite length per nucleus (z-score)": -1.25},
      {"smiles": "Cc1[nH]c(/C=C2\\C(=O)Nc3ccccc32)c(C)c1CCC(=O)O", "note": "[TSU-68 (SU6668_ Orantinib)]", "total neurite length per nucleus (z-score)": 0.411},
      {"smiles": "CN(C)CCOC(C)(c1ccccc1)c1ccccn1", "note": "(stereo not drawn) [Doxylamine Succinate]", "total neurite length per nucleus (z-score)": 0.0825},
      {"smiles": "COc1ccccc1OCCNCC(O)COc1cccc2[nH]c3ccccc3c12", "note": "(stereo not drawn) [Carvedilol]", "total neurite length per nucleus (z-score)": -0.514},
      {"smiles": "CN1CCC(OC(c2ccccc2)c2ccccc2)CC1", "note": "[Diphenylpyraline HCl]", "total neurite length per nucleus (z-score)": 0.359},
      {"smiles": "CC1=C(C(=O)OC(C)C)C(c2cccc([N+](=O)[O-])c2)C(C(=O)OC2CN(C(c3ccccc3)c3ccccc3)C2)=C(N)N1", "note": "(stereo not drawn) [Azelnidipine]", "total neurite length per nucleus (z-score)": -2.52},
      {"smiles": "CCCCNc1cc(C(=O)O)cc(S(N)(=O)=O)c1Oc1ccccc1", "note": "[Bumetanide]", "total neurite length per nucleus (z-score)": 0.503},
      {"smiles": "C[C@H]1c2cccc(O)c2C(=O)C2=C(O)[C@]3(O)C(=O)C(C(N)=O)=C(O)[C@@H](N(C)C)[C@@H]3[C@@H](O)[C@@H]21", "note": "[Doxycycline Hyclate]", "total neurite length per nucleus (z-score)": -1.3},
      {"smiles": "CC(CN1c2ccccc2Sc2ccccc21)N(C)C", "note": "(stereo not drawn) [Promethazine HCl]", "total neurite length per nucleus (z-score)": -1.03},
      {"smiles": "COc1ccc(CCNCc2ccc(OCc3ccc(Cl)nc3)c(OC)c2)cc1OC", "total neurite length per nucleus (z-score)": -0.449},
      {"smiles": "CCC/N=C1\\S/C(=C\\c2ccc(OC[C@H](O)CO)c(Cl)c2)C(=O)N1c1ccccc1C", "note": "[Ponesimod]", "total neurite length per nucleus (z-score)": -1.49},
      {"smiles": "Nc1nc(N)c2nc(-c3cccc(O)c3)cnc2n1", "total neurite length per nucleus (z-score)": -0.172},
      {"smiles": "CN1CCN2c3ccccc3Cc3ccccc3C2C1", "note": "(stereo not drawn) [Mianserin HCl]", "total neurite length per nucleus (z-score)": -0.0257},
      {"smiles": "CCC(NC(C)C)C(O)c1ccc(O)c(O)c1", "note": "(stereo not drawn) [Isoetharine Mesylate]", "total neurite length per nucleus (z-score)": 0.167}
    ]}
  ]
}
